According to patent US6613536B1, “Synthetic peptides and pharmaceutical compositions comprising them for the treatment of systemic lupus erythematosus” (Yeda Research and Development Co. Ltd., priority 1995, dated 2003):
Some of these results come from one statement about several compounds together.

Test system: lymph node cells (LNC) of BALB/c and SJL mice
Assay: In vivo inhibition of LNC proliferation responses to the CDR-based peptides
Design: species or system mouse
Conditions: 200 μg i.v. 3 days prior to or at immunization day
Method: BALB/c (FIG. 5a) and SJL (FIG. 5b) mice were immunized with peptides Ia and IIIa (20 μg/mouse in CFA i.d. in the hind footpads), respectively. The mice were also injected i.v. with 200 μg of the above peptides in PBS either 3 days prior to immunization (open squares), at the immunization day (open circles) or at both dates (open triangles). Ten days later the mice were sacrificed and their lymph nodes were removed and tested for proliferation in the presence of different concentrations of the immunizing peptide. Control groups were of LNC taken from mice that were immunized but not treated (filled squares), or treated with control peptide, p307 (half filled squares). The culture mixtures were incubated for 96 hours in enriched RPMI medium containing 1% normal mouse serum prior to addition of ^3H-thymidine. Sixteen hours later cells were harvested and radioactivity was counted. Results are expressed as mean CPM of triplicates.

| Substance | inhibition of proliferative capacity of LNC to the immunizing peptide (SJL mice immunized with IIIa) | inhibition of proliferative capacity of LNC to the immunizing peptide (BALB/c mice immunized with Ia) |
| --- | --- | --- |
| YYYCARFLWEPYAMDYWGQGS (YYCARFLWEPYAMDYWGQGS) [peptide IIIa, based on the CDR3 region of the VH chain of mAb 5G12] | Up to 95% |  |
| TGYYMQWVKQSPEKSLEWIG [peptide Ia] |  | Up to 95% |
